Data published in US20130216485A1, “Dentifrice Composition with Reduced Astringency” (Colgate-Palmolive Company, priority 2010, published 2013).

Assay: ESCA surface composition of treated hydroxyapatite disks
Settings: average of all disks

O=P(O)(O)O[C@H]1[C@H](OP(=O)(O)O)[C@@H](OP(=O)(O)O)[C@H](OP(=O)(O)O)[C@@H](OP(=O)(O)O)[C@H]1OP(=O)(O)O [2:1 Phytic acid, phytic acid (inositol hexaphosphate)]
ESCA Ratio P/Ca: 0.96 | ESCA surface composition, C: 27.24 Atomic Percent | ESCA surface composition, Ca: 9.29 Atomic Percent | ESCA surface composition, Mg: 0.52 Atomic Percent | ESCA surface composition, Na: 6.69 Atomic Percent | ESCA surface composition, O: 42.35 Atomic Percent | ESCA Ratio P/Ca (listed as phytic acid): significant increase
